Publication PMC4539528
Results are given in words; binding and its absence hold for the method and conditions named. Binding seen in cells or lysates may run through a third protein. Some entries that bind do so weakly or less than the wild type. Sequences can lack the tags named with a protein.

Legend:
Assay in all cases: pull-down; 2-5 ug purified GST-N-cadherin fusion protein incubated with about 500 ug lysate of transfected HEK293T cells in RIPA buffer at 4°C overnight; captured on glutathione-Sepharose 4B beads; immunoblot; only the target purified
[1] = target: GST-N-cadherin cytoplasmic domain fusion protein (GST-Ncad-CT) (UniProt P15116)
GST-Ncad751-844 = target: T1, GST-Ncad751-844 (UniProt P15116)
T1 sequence: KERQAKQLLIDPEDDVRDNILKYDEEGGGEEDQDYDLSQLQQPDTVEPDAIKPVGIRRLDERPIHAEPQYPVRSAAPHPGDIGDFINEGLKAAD

GST-Ncad751-906 = GST-Ncad751-906 (UniProt P15116)
GST-Ncad751-794 = target: T2, GST-Ncad751-794 (UniProt P15116)
T2 sequence: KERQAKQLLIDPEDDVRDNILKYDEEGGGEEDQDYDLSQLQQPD

B1: HA-Myo10^FERM (domain or fragment, UniProt F8VQB6 1704-2048)
chain: MTSTVYCHGGGSCKITINSHTTAGEVVEKLIRGLAMEDSRNMFALFEYNGQVDKAIESRTIVADVLAKFEKLAATSEAGDAPWKFYFKLYCFLDTDSMPKDSVEFAFMFEQAHEAVIHGHHPAPEESLQVLAALRLQYLQGDYTPHTSIPPLEEVYSVQRLRARISQSTKTFTPYERLEKRRTSFLEGTLRRSFRTGSVVRQKAEEEQMLDMWIKEEVCSARTSIIDKWKKLQGMNQEQAMAKYMALIKEWPGYGSTLFDVECKEGGFPQELWLGVSADAVSVYKRGEGKPLEVFQYEHILSFGAPLANTYKIVVDERELLFETSEVVDVAKLMKAYISMIVKKR
- binding [1]: binds
- binding (GST-Ncad751-844): no binding
- binding (GST-Ncad751-906): binds
- binding (GST-Ncad751-794): no binding
